Patent US9914711B2 (priority 2013, dated 2018)
Entries after “also recorded” stand apart in the source; their conditions may differ. Some of these results come from one statement about several compounds together. At least one compound was matched to its structure with a doubt left.

What follows are compounds tested on C. violaceum CV026 (assay: Preliminary screening of bacterial quorum sensing agonistic / inhibitory activity on LB plate (purple stain / white circle)). Conditions: summary of the activity evaluation experiments.
Assay type: cell-based
Experimental: 1.1 Preparation work: different compounds to be tested (Compounds 1-40 prepared in Example 1-40) were weighted and then were dissolved in 200 μl DMSO (dimethyl sulfoxide) to prepare a solution at a concentration of 0.065M. 5.0 mg inducer, N-hexanoyl homoserine lactone (C6-HSL, purchased from Sigma Company), was weighted and was dissolved in 200 μl DMSO (at a concentration of 0.125M), and the compounds and the inducer were stored at 4 for further use. C. violaceum CV026 (donated by Professor McLean J C from Texas State University) in LB culture medium (LB culture medium consisting of 1% (percentage by mass) tryptone, 0.5% (percentage by mass) yeast extract, 1% (percentage by mass) NaCl and water) was cultured under shaking in a shaker at 30, 200 rpm to get the culture medium for further use.
1.2 Method for preliminary screening of compounds having agonistic activity: 400 μl C. violaceum CV026 (at a bacterial concentration of 1×10^8/ml) was added to 5 ml melted semi-solid LB culture medium, and was mixed well; the mixed culture medium was poured into a solid LB plate; when the mixed culture medium was solidified on the plate, lattice was made thereon; 1 μl of the dissolved compounds to be tested (Compounds 1-40 in Examples 1-40, at a concentration of 0.065M) was spotted on the plate; when the compounds on the plate was dried in air, the plate was put in a 30° C. oven upside down and was cultured for a period of 16-18 h. If the compound to be tested has an agonistic effect on C. violaceum CV026 on the LB plate, purple stain will be induced on the LB plate. The agonistic activity of a compound is determined depending on whether purple stain is induced for C. violaceum CV026 on LB plate as well as the purple depth.
1.3 Method for preliminary screening of compounds having inhibitory activity: the inducer C6-HSL was diluted gradiently to 1000 times by means of 2-fold dilution; 15 μl diluted inducer and 400 μl C. violaceum CV026 in exponential phase (at a bacterial concentration of 1×10^8/ml) were mixed well and then were added to a 5 ml melted semi-solid LB culture medium; the mixture of inducer, C. violaceum, and semi-solid LB was poured onto a solid LB plate; when the mixture was solidified on the plate, lattice was made thereon: 1 μl of the dissolved compounds to be tested (Compounds 1-40 in Examples 1-40, at a concentration of 0.065M) was spotted on the plate; when the compounds on the plate were dried in air, the plate was put in a 30° C. oven upside down and was cultured for a period of 16-18 h. If the compound to be tested has an inhibitory effect on C. violaceum CV026 on the LB plate, white circle will appear on the LB plate. The inhibitory activity of a compound is preliminary determined depending on the size of the white circle appeared after C. violaceum CV026 was inhibited on LB plate.
It is found after preliminary screening that 22 compounds according to the invention have bacterial quorum sensing regulatory activity, and the screening result was shown in Table 1.

Row | SMILES | Effect on bacterial quorum sensing (summary in words)
1 | O=C(NN1CCOC1=O)c1ccc(F)cc1 [Compound 9, 4-fluoro-N-(2-oxo-oxazolidin-3-yl)benzamide] | regulatory effect on bacterial quorum sensing; also recorded: agonizing effect on bacterial quorum sensing
2 | O=C(NN1CCOC1=O)c1cccc(Cl)c1 [Compound 5, 3-chloro-N-(2-oxo-oxazolidin-3-yl)benzamide] | agonizing effect on bacterial quorum sensing; also recorded: regulatory effect on bacterial quorum sensing
3 | CC(C)(C)c1ccc(C(=O)NN2CCOC2=O)cc1 [Compound 2, 4-tert-butyl-N-(2-oxo-oxazolidin-3-yl)benzamide] | regulatory effect on bacterial quorum sensing
4 | O=C(NC1CCCCC1)NN1CCOC1=O [Compound 22, 1-cyclohexyl-3-(2-oxo-oxazolidin-3-yl)urea] | regulatory effect on bacterial quorum sensing
5 | O=C(NN1CCOC1=O)c1ccc(CCl)cc1 [Compound 3, 4-chloromethyl-N-(2-oxo-oxazolidin-3-yl)benzamide] | regulatory effect on bacterial quorum sensing
6 | CCCCNC(=O)NN1CCOC1=O [Compound 15, 1-(2-oxo-oxazolidin-3-yl)-3-butyl urea] | regulatory effect on bacterial quorum sensing
7 | O=C(CCc1ccccc1)NN1CCOC1=O [Compound 37] | agonizing effect on bacterial quorum sensing
8 | O=C(NN1CCOC1=O)c1ccccc1C(F)(F)F [Compound 10, 2-trifluoromethyl-N-(2-oxo-oxazolidin-3-yl)benzamide] | agonizing effect on bacterial quorum sensing
9 | O=C(Cc1ccc(F)cc1)NN1CCOC1=O [Compound 31, 2-(4-fluorophenyl)-N-(2-oxo-oxazolidin-3-yl)acetamide] | agonizing effect on bacterial quorum sensing
10 | CCCCCCNC(=O)NN1CCOC1=O [Compound 17, 1-(2-oxo-oxazolidin-3-yl)-3-hexyl urea] | regulatory effect on bacterial quorum sensing
11 | O=C(NN1CCOC1=O)c1ccccc1Cl [Compound 4, 2-chloro-N-(2-oxo-oxazolidin-3-yl)benzamide] | regulatory effect on bacterial quorum sensing
12 | O=C(NN1CCOC1=O)c1ccc(Br)cc1 [Compound 12, 4-bromo-N-(2-oxo-oxazolidin-3-yl)benzamide] | regulatory effect on bacterial quorum sensing
13 | O=C(Cc1ccc([N+](=O)[O-])cc1)NN1CCOC1=O [Compound 33, 2-(4-nitrophenyl)-N-(2-oxo-oxazolidin-3-yl)acetamide] | agonizing effect on bacterial quorum sensing
14 | O=C(CCCc1ccccc1)NN1CCOC1=O [Compound 40, N-(2-oxo-oxazolidin-3-yl)-4-phenyl butanamide] | agonizing effect on bacterial quorum sensing
15 | O=C(Cc1ccc(Cl)cc1)NN1CCOC1=O [Compound 34, 2-(4-chlorophenyl)-N-(2-oxo-oxazolidin-3-yl)acetamide] | agonizing effect on bacterial quorum sensing
16 | Cc1ccc(CCC(=O)NN2CCOC2=O)cc1 [Compound 38] | agonizing effect on bacterial quorum sensing
17 | Cc1cccc(C(=O)NN2CCOC2=O)c1 [Compound 8, 3-methyl-N-(2-oxo-oxazolidin-3-yl)benzamide] | agonizing effect on bacterial quorum sensing
18 | O=C(Nc1ccc(Br)cc1)NN1CCOC1=O [Compound 20, 1-(4-bromophenyl)-3-(2-oxo-oxazolidin-3-yl)urea] | regulatory effect on bacterial quorum sensing
19 | COc1ccc(CC(=O)NN2CCOC2=O)cc1 [Compound 32, 2-(4-methoxyphenyl)-N-(2-oxo-oxazolidin-3-yl)acetamide] | agonizing effect on bacterial quorum sensing
20 | O=C(CCc1ccc(Cl)cc1)NN1CCOC1=O [Compound 39] | agonizing effect on bacterial quorum sensing
21 | O=C(NN1CCOC1=O)c1ccccc1F [Compound 6, 2-fluoro-N-(2-oxo-oxazolidin-3-yl)benzamide] | regulatory effect on bacterial quorum sensing
22 | O=C(NCc1ccccc1)NN1CCOC1=O [Compound 23, 1-benzyl-3-(2-oxo-oxazolidin-3-yl)urea] | regulatory effect on bacterial quorum sensing
23 | Cc1ccc(CC(=O)NN2CCOC2=O)cc1 [Compound 35, 2-(4-tolyl)-N-(2-oxo-oxazolidin-3-yl)acetamide] | agonizing effect on bacterial quorum sensing
24 | O=C(CCc1ccc([N+](=O)[O-])cc1)NN1CCOC1=O [Compound 36] | agonizing effect on bacterial quorum sensing
25 | CCCCCNC(=O)NN1CCOC1=O [Compound 16, 1-(2-oxo-oxazolidin-3-yl)-3-pentyl urea] | regulatory effect on bacterial quorum sensing
26 | O=C1OCCN1NC(=S)Nc1ccc(F)cc1 [Compound 28, 1-(4-fluorophenyl)-3-(2-oxo-oxazolidin-3-yl)sulfourea] | regulatory effect on bacterial quorum sensing
27 | O=C(NN1CCOC1=O)c1ccc(F)cc1 [Compound 1, 4-fluoro-N-(2-oxo-oxazolidin-3-yl)benzamide] | regulatory effect on bacterial quorum sensing
28 | O=C(NCCc1ccccc1)NN1CCOC1=O [Compound 24, 1-(2-oxo-oxazolidin-3-yl)phenyl ethyl urea] | regulatory effect on bacterial quorum sensing
